Results are given in words; binding and its absence hold for the method and conditions named. In cells and extracts the contact can be indirect. Some binding calls cover weakened binding; strength is not graded here. Sequences can lack the tags named with a protein.
Molecular target: Flag-T4 (Flag-tagged full-length human ppGalNAc-T4) (human) (UniProt Q8N4A0)
Assay: co-IP; HEK-293T cells co-transfected with Flag-T4 and HA-TβR Ⅰ or HA-TβR Ⅱ; whole cell lysates precipitated with anti-Flag magnetic beads, blotted with anti-HA

Amino acid sequences for entries named in this document (tags omitted).
UniProt Q8N4A0: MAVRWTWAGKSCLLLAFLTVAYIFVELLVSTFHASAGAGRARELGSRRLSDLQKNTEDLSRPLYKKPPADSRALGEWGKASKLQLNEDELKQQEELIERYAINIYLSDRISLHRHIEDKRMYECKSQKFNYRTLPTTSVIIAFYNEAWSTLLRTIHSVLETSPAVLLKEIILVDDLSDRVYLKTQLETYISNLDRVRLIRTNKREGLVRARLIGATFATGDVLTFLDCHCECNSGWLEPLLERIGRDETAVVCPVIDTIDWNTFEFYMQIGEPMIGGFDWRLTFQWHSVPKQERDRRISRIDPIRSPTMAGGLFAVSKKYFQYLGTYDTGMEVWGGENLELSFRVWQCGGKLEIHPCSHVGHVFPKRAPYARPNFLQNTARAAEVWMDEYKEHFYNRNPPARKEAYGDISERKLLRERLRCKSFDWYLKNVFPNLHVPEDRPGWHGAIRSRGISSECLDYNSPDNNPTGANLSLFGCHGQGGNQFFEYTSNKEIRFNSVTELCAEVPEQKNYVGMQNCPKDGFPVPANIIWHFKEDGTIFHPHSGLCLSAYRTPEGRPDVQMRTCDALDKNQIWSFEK

B1: HA-TβR Ⅰ (HA-tagged full-length human TGF-β type Ⅰ receptor), in HEK-293T (receptor, UniProt P36897 34-503)
chain: LQCFCHLCTKDNFTCVTDGLCFVSVTETTDKVIHNSMCIAEIDLIPRDRPFVCAPSSKTGSVTTTYCCNQDHCNKIELPTTVKSSPGLGPVELAAVIAGPVCFVCISLMLMVYICHNRTVIHHRVPNEEDPSLDRPFISEGTTLKDLIYDMTTSGSGSGLPLLVQRTIARTIVLQESIGKGRFGEVWRGKWRGEEVAVKIFSSREERSWFREAEIYQTVMLRHENILGFIAADNKDNGTWTQLWLVSDYHEHGSLFDYLNRYTVTVEGMIKLALSTASGLAHLHMEIVGTQGKPAIAHRDLKSKNILVKKNGTCCIADLGLAVRHDSATDTIDIAPNHRVGTKRYMAPEVLDDSINMKHFESFKRADIYAMGLVFWEIARRCSIGGIHEDYQLPYYDLVPSDPSVEEMRKVVCEQKLRPNIPNRWQSCEALRVMAKIMRECWYANGAARLTALRIKKTLSQLSQQEGIKM
- binding: binds

— paper PMC7948473
